From PMC11254415 come the findings set out here.

Sequences of proteins named here, by UniProt entry; tags and fusion partners are left off. Residues count along the entry.
UniProt P06756, residues 31-1048: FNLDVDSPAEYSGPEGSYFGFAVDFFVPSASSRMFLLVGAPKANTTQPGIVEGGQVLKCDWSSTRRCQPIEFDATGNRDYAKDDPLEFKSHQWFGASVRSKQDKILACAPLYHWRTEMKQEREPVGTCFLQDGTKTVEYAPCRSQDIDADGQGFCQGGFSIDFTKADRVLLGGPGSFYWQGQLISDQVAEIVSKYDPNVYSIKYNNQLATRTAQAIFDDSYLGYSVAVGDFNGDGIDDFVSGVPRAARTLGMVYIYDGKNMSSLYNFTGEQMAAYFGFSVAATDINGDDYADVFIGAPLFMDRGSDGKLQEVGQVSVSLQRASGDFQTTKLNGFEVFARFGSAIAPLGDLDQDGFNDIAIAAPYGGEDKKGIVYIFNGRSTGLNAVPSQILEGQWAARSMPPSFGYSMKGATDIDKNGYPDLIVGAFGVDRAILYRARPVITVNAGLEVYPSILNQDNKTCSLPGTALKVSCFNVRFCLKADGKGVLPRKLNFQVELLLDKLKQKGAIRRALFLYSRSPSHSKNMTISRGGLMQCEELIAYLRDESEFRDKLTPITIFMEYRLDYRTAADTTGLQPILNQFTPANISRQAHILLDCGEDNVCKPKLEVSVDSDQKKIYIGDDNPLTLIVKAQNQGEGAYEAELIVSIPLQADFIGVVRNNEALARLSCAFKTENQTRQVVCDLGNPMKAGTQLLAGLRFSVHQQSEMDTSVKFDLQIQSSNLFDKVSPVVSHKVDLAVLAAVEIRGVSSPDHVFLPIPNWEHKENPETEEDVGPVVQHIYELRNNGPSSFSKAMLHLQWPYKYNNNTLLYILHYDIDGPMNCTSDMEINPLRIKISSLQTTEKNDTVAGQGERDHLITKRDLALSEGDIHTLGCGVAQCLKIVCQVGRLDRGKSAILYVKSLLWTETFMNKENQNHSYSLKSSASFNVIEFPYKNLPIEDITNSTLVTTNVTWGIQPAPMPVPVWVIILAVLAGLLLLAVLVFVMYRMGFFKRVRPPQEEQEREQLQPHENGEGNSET

This assay deals with T1, Flag-tagged ANGPTL4 (ANGPTL4-Flag) (human) (UniProt Q9BY76).
T1 sequence: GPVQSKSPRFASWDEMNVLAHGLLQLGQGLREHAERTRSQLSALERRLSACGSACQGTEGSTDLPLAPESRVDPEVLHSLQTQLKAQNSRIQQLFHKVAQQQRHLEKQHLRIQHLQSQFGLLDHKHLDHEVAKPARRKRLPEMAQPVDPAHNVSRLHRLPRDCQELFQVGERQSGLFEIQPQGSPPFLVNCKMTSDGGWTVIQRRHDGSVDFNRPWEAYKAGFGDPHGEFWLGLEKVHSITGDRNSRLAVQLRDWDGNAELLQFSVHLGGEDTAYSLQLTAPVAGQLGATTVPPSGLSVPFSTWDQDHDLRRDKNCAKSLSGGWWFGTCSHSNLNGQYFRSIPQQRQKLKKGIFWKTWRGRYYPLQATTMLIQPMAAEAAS
Nature of the assay: affinity purification with mass spectrometry; AGS cells expressing ANGPTL4-Flag, IP with anti-Flag Abs, in-gel digestion, LC-MS/MS (Q Exactive HF).

These are yes or no findings as the source states them, for the method shown. In cells and extracts the contact can be indirect. These calls come from enrichment with a bait or labelling near it, and not all partners need be listed. Sequences can lack the tags named with a protein.

“integrin αV (ITGAV) (from UniProt P06756 31-1048) (receptor)”: the binding result is recorded as “binds”.
